PubChem BioAssay AID1159584, Peter MacCallum Cancer Centre – 2016

Screen: 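Genes whose loss is lethal only together with E-cadherin loss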 (primary screen)
System: human MCF10A breast epithelial cells, parental and CDH1-null
Knock-down reagent: siRNA against human genes
Detection: 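Cell viability by CellTiter-Glo ATP luminescence, each line scaled to the mean of mock wells across plates, then CDH1-null over parental ratio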
Scale: CDH1-null / parental viability ratio: higher = CDH1-null cells survive relatively better than parental; CDH1-null viability vs mock: higher = more viable CDH1-null cells; parental viability vs mock: higher = more viable parental cells
This is an unselected part of about 18,000 reagents. Not given: the amount of reagent, the time to read-out.

| Gene | CDH1-null / parental viability ratio | CDH1-null viability vs mock (fraction of mock) | parental viability vs mock (fraction of mock) |
| --- | --- | --- | --- |
| DNTTIP1 | 1.02 | 0.84 | 0.82 |
| GRK6 | 0.98 | 0.86 | 0.88 |
| TBPL1 | 0.93 | 0.82 | 0.88 |
| CEP83 | 0.9 | 0.8 | 0.89 |
| PLG | 1.21 | 0.92 | 0.76 |
| GABARAP | 0.99 | 0.87 | 0.88 |
| DENND4A | 1.23 | 0.91 | 0.74 |
| ERLIN1 | 1.01 | 0.7 | 0.69 |
| DAPK1 | 1.16 | 1 | 0.86 |
| THRB | 1 | 0.64 | 0.64 |

No new results follow: an excerpt of the list.
| Gene | CDH1-null / parental viability ratio | CDH1-null viability vs mock (fraction of mock) | parental viability vs mock (fraction of mock) |
| --- | --- | --- | --- |
| DENND4A | 1.23 | 0.91 | 0.74 |
| ERLIN1 | 1.01 | 0.7 | 0.69 |
| DAPK1 | 1.16 | 1 | 0.86 |

Continued:
| Gene | CDH1-null / parental viability ratio | CDH1-null viability vs mock (fraction of mock) | parental viability vs mock (fraction of mock) |
| --- | --- | --- | --- |
| LEFTY2 | 1.13 | 1.04 | 0.92 |
| BLOC1S4 | 0.92 | 0.83 | 0.9 |
| TGM3 | 1.27 | 0.98 | 0.77 |
| CFHR4 | 1.06 | 1.01 | 0.95 |
| VPS16 | 1.36 | 0.76 | 0.56 |
| LINS1 | 1 | 0.56 | 0.56 |
| OR8J1 | 0.99 | 0.97 | 0.98 |
| RSPO1 | 0.67 | 0.31 | 0.46 |
| RLIG1 | 1.16 | 0.74 | 0.64 |
| GRPR | 0.82 | 0.82 | 1 |
| SHLD1 | 0.94 | 0.76 | 0.81 |
| EVC | 0.58 | 0.6 | 1.04 |
| NCBP3 | 0.88 | 0.9 | 1.02 |
| NOP16 | 1.06 | 0.36 | 0.34 |
| MARF1 | 0.9 | 0.96 | 1.07 |
| COL23A1 | 0.69 | 0.6 | 0.87 |
| CCNA2 | 1.04 | 0.94 | 0.9 |
| CHODL | 1.19 | 0.57 | 0.48 |
